Source: publication PMC7819943, “Rice protein-binding microarrays: a tool to detect cis-acting elements near promoter regions in rice”
The list shows a part of the results.

Target: T1, OsSMF1 (Oryza sativa, UniProt Q6ZLB0 1-436)
T1 sequence: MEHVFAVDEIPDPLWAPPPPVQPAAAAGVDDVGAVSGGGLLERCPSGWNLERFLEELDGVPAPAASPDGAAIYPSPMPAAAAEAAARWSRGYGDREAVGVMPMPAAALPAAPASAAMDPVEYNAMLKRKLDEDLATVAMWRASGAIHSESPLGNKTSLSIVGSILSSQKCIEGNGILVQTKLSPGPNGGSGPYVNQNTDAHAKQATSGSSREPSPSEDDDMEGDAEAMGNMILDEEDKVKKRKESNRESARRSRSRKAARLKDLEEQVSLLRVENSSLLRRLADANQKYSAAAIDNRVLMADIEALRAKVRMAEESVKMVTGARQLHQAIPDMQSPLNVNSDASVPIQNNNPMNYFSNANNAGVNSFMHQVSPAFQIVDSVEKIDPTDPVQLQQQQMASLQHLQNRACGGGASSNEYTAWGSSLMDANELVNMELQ
Experiment: protein-binding microarray (RPBM); PBS, 2% BSA, 51.3 ng/ul salmon testes DNA, 50 uM zinc acetate, 200 nM TF, 25 C, 1 h; high values mean tight binding
Conditions: protein: recombinant; tags: N-terminal polyhistidine and DsRed monomer fusion (pET32a); chain copies: 2; label: CyDye5-dUTP incorporated in the synthesized complementary strand; 3' TTTTT single-stranded linker to array surface; dsDNA, one strand shown
In short: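 Transcription factors were each fused at the N-terminus to a polyhistidine tag plus DsRed and expressed in E. coli BL21-CodonPlus before Ni–NTA purification. Binding to a double-stranded custom Agilent array was carried out with 200 nM protein at 25 °C for 1 h in PBS, 2% BSA, salmon testes DNA and 50 µM zinc acetate. The binding signal is per-feature fluorescence intensity, in arbitrary units, on an Axon 4000B scanner.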

Sequence	binding signal
ACGCTTCCGGGGAGGTCACCGTCAGATGCGGTGGATGCGTCGGAGTCACCTAGTGCAG	3540 fluorescence intensity (a.u.)
GGCAGTATTGTGGGTGGTTTCGTCCGACGTGGAGGATTGACGGAGTCACCTAGTGCAG	8560 fluorescence intensity (a.u.)
AGAGATGACCATGACGCAATCTAATCATGCAGACACCATACGGAGTCACCTAGTGCAG	3520 fluorescence intensity (a.u.)
TGGTTGGGCCTGTGCAGCATGGGTGTGCTGTTCAGTGTTGCGGAGTCACCTAGTGCAG	3410 fluorescence intensity (a.u.)
TAAAATATCACGTATACTAGTGATGTACTTGGGGTGATGCCGGAGTCACCTAGTGCAG	3160 fluorescence intensity (a.u.)
TCGGCCGTCGGATCGCGCGCGAAACGCTGTGATGTGCTGGCGGAGTCACCTAGTGCAG	4480 fluorescence intensity (a.u.)
TCTTCCCGAATACATTTCGTCGAACACCTTGTGTGCGTAACGGAGTCACCTAGTGCAG	19800 fluorescence intensity (a.u.)
AACCCAAAGCGAAACGTGGACATGTATGCACCATTGGATCCGGAGTCACCTAGTGCAG	3700 fluorescence intensity (a.u.)
ATCCTCGAGTCATGGCCTTTCTCGACCTCGTGTACTACACCGGAGTCACCTAGTGCAG	4120 fluorescence intensity (a.u.)
ATAACAACCAGATAGCTATTTAATAAATTTAAAGTAAAATCGGAGTCACCTAGTGCAG	38500 fluorescence intensity (a.u.)
ATTATGCATTATGAATATTTACATGACAGTATATTTAGGACGGAGTCACCTAGTGCAG	20500 fluorescence intensity (a.u.)
AGATCCTATAAACGCTCCTAAATCGCCACGCGGCAATCATCGGAGTCACCTAGTGCAG	4280 fluorescence intensity (a.u.)
GAAAACGGCGTCTGCCACGTGTACACCACTCCTCTGTCTACGGAGTCACCTAGTGCAG	23100 fluorescence intensity (a.u.)
CGCGTGTTCTCTTCTCCTGGCTCGATTGCGTGTTGTAGATCGGAGTCACCTAGTGCAG	4100 fluorescence intensity (a.u.)
GGAGCGGCCTAGGGTAGGCACACCGCGCACGTGGCGCCAACGGAGTCACCTAGTGCAG	7030 fluorescence intensity (a.u.)
AGAATCAATAATATAGTACATGCTTAAACGCAAATTTCTTCGGAGTCACCTAGTGCAG	3600 fluorescence intensity (a.u.)
TTTAACAAATGATTTTACTCATTCATCGTGTGACACATCCCGGAGTCACCTAGTGCAG	4250 fluorescence intensity (a.u.)
CACTCCGGGTCGCAATGATACCTTTGTGTCATCGGTCATGCGGAGTCACCTAGTGCAG	3300 fluorescence intensity (a.u.)
AAACAGCAGCAATGTCTCTTTTACGTGGACATCTCAATTACGGAGTCACCTAGTGCAG	3710 fluorescence intensity (a.u.)
AGTACTTAATGTGTCTAAATTCGTACTGCCCAATAATCTGCGGAGTCACCTAGTGCAG	35700 fluorescence intensity (a.u.)
CTCGCGTCCGCTGCCTATTTCTGCCTCCGCCACGCCCACGCGGAGTCACCTAGTGCAG	3430 fluorescence intensity (a.u.)

Sequence	binding signal
TTTCTCTTATTACGGGTAAAATACAATCAATTCTTGACTGCGGAGTCACCTAGTGCAG	36800 fluorescence intensity (a.u.)
GGACTGCGGAACACTCCCTGTTTGTCGCGAGTTAAGTTTTCGGAGTCACCTAGTGCAG	15500 fluorescence intensity (a.u.)
GCGATGGGTGCGGTGAACAAGAGGGAGAGTAGGAGCGGGACGGAGTCACCTAGTGCAG	11900 fluorescence intensity (a.u.)
GTTTAGTCCATCTTTGTCGATTTGCACCGTCACTGTAAGACGGAGTCACCTAGTGCAG	4010 fluorescence intensity (a.u.)
ATAGCGAAAACACAACTCTCATACTTGCGAACCTCTCCATCGGAGTCACCTAGTGCAG	3150 fluorescence intensity (a.u.)
CTGCGGCCATCGTCCTGTTCCTCTTGGCCTCGCGTGCAGTCGGAGTCACCTAGTGCAG	3280 fluorescence intensity (a.u.)
AGACTTCCACCTCACCCCTACCCCGACCGTGCACCAACCCCGGAGTCACCTAGTGCAG	5610 fluorescence intensity (a.u.)
ATCACGTAACATCCAAACGACATGACTCACTCTGATCCTACGGAGTCACCTAGTGCAG	5600 fluorescence intensity (a.u.)
CGACAAATCCACCTTGGCCTGCACTTGATCGAGCCTCTCTCGGAGTCACCTAGTGCAG	3570 fluorescence intensity (a.u.)
AAGCTAGCGGTCACCCAGTCAGCTCACCCCGAGACGCACCCGGAGTCACCTAGTGCAG	4400 fluorescence intensity (a.u.)
CACCGTCGCCGGGACACACGCCGCCGCACCGCCTCCACCACGGAGTCACCTAGTGCAG	3330 fluorescence intensity (a.u.)
ACGAAATCAGGCATCAGCATTTGTTCTTTGAATCAGTTCTCGGAGTCACCTAGTGCAG	3660 fluorescence intensity (a.u.)
CAACAACACAACTGCGATATGGTCGTGATTTACGTCTGAACGGAGTCACCTAGTGCAG	35700 fluorescence intensity (a.u.)
GCGACGCTACCATTTCCGTCCGTTTGTTCAACCAACTCTCCGGAGTCACCTAGTGCAG	21100 fluorescence intensity (a.u.)
AGACCGTTTTGATGATTCATGTTGTATTTATTGGTACCCTCGGAGTCACCTAGTGCAG	4620 fluorescence intensity (a.u.)
TTACAGTGGGGCACTTGGTACAAGGCTCTCAGTCGATGCGCGGAGTCACCTAGTGCAG	17900 fluorescence intensity (a.u.)
GTCGTGACTCGCTTTCGCCGGCAAGCCCTGTTCATCGGCGCGGAGTCACCTAGTGCAG	18300 fluorescence intensity (a.u.)
AACAGTAACCTTGCTGCAGATCAAGTCATGGCTGACTTTGCGGAGTCACCTAGTGCAG	3220 fluorescence intensity (a.u.)
GCCGCCCCGATCTCTTCCCTCCGGCGGCCGCCATGTCATCCGGAGTCACCTAGTGCAG	6840 fluorescence intensity (a.u.)
CGTCCCAACCGGTAGTCCAGTTGACAGTTGGCACCCGATGCGGAGTCACCTAGTGCAG	3940 fluorescence intensity (a.u.)
AGCGGGTTAACATAGGATCCTGCGGCTGGACACGTGGCGGCGGAGTCACCTAGTGCAG	27800 fluorescence intensity (a.u.)

2 entries from above in another layout.
TCGGCCGTCGGATCGCGCGCGAAACGCTGTGATGTGCTGGCGGAGTCACCTAGTGCAG
  binding signal: 4480 fluorescence intensity (a.u.)
TCTTCCCGAATACATTTCGTCGAACACCTTGTGTGCGTAACGGAGTCACCTAGTGCAG
  binding signal: 19800 fluorescence intensity (a.u.)
